Results deposited as PubChem BioAssay AID504804 (Drosophila RNAi Screening Center, 2011).

- Purpose: 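Fly genes whose loss lessens doxorubicin-driven cell death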 (primary screen)
- Cells: Drosophila Kc cells
- Reagent: long dsRNA against Drosophila genes, 0.5 µg dsRNA per well
- Timing: 96 h (48 h knock-down, then 48 h drug)
- Conditions: doxorubicin 5 µg/ml for 48 h, added 48 h after dsRNA
- Measurement: 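Luminescent ATP counts per replicate, not normalised, reflecting viable cells after 48 h dsRNA knock-down followed by 48 h of 5 µg/ml doxorubicin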
- Direction: raw ATP luminescence: higher = more viable cells, protection from doxorubicin
- Call rule: 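Active when both duplicate wells lie at least 2 SD above the plate mean and protection is confirmed by rescreening and independent dsRNAs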
In all, the deposit lists about 19,000 reagents; this is a random part of those that have a named target and a result. Of all reagents, 47 (0.25%) were called active. 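Signals are raw, not normalised; exact z-scores behind calls not deposited; actives needed confirmation, so some wells reaching 2 SD are inactive.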 No sequences are given here.

For Sara (GeneID 44263) [DRSC04653], what does the deposit list?
raw ATP luminescence, replicate 1: 63300; raw ATP luminescence, replicate 2: 79037; Outcome: inactive

With qjt (GeneID 39952) [DRSC10060], what was measured?
raw ATP luminescence, replicate 1: 45657; raw ATP luminescence, replicate 2: 39430; Outcome: inactive

With CG8202 (GeneID 41043) [DRSC16396], what was measured?
raw ATP luminescence, replicate 1: 68737; raw ATP luminescence, replicate 2: 61167; Outcome: inactive

What did the screen give for CG6126 (GeneID 41967) [DRSC15971]?
raw ATP luminescence, replicate 1: 47573; raw ATP luminescence, replicate 2: 58063; Outcome: inactive

Which result is listed for CG42747 (GeneID 38732) [DRSC10209]?
raw ATP luminescence, replicate 1: 96390; raw ATP luminescence, replicate 2: 1.00e5; Outcome: inactive

Which result is listed for CG42747 (GeneID 38732) [DRSC10210]?
raw ATP luminescence, replicate 1: 56350; raw ATP luminescence, replicate 2: 71317; Outcome: inactive

With Dlip1 (GeneID 53580) [DRSC18460], what was measured?
raw ATP luminescence, replicate 1: 2.98e5; raw ATP luminescence, replicate 2: 2.74e5; Outcome: inactive

What did the screen give for Dronc (GeneID 39173) [DRSC11231]?
SD above plate mean: at least 3 SD above plate mean; raw ATP luminescence, replicate 1: 98707; raw ATP luminescence, replicate 2: 1.00e5; Outcome: active

Which result is listed for CG31784 (GeneID 318939) [DRSC01574]?
raw ATP luminescence, replicate 1: 2.90e5; raw ATP luminescence, replicate 2: 2.51e5; Outcome: inactive

For Dnaaf5 (GeneID 318680) [DRSC13032], how do the results read?
raw ATP luminescence, replicate 1: 2.31e5; raw ATP luminescence, replicate 2: 2.06e5; Outcome: inactive

With CG2519 (GeneID 40666) [DRSC12312], how do the results read?
raw ATP luminescence, replicate 1: 56953; raw ATP luminescence, replicate 2: 25180; Outcome: inactive

With Had1 (GeneID 32592) [DRSC20216], what was measured?
raw ATP luminescence, replicate 1: 2.99e5; raw ATP luminescence, replicate 2: 3.31e5; Outcome: inactive

For TwdlY (GeneID 318093) [DRSC19153], how do the results read?
raw ATP luminescence, replicate 1: 1.94e5; raw ATP luminescence, replicate 2: 2.00e5; Outcome: inactive

For TyrRS (GeneID 39829) [DRSC10430], how do the results read?
raw ATP luminescence, replicate 1: 22217; raw ATP luminescence, replicate 2: 27077; Outcome: inactive

For Prosap (GeneID 50225) [DRSC07081], what does the deposit list?
raw ATP luminescence, replicate 1: 89103; raw ATP luminescence, replicate 2: 49003; Outcome: inactive

With boss (GeneID 43146) [DRSC16916], what was measured?
raw ATP luminescence, replicate 1: 89700; raw ATP luminescence, replicate 2: 90330; Outcome: inactive

How did the screen score CG30158 (GeneID 50149) [DRSC04956]?
raw ATP luminescence, replicate 1: 98833; raw ATP luminescence, replicate 2: 80407; Outcome: inactive

For CG30158 (GeneID 50149) [DRSC04974], what does the deposit list?
raw ATP luminescence, replicate 1: 53527; raw ATP luminescence, replicate 2: 71867; Outcome: inactive

With CG30158 (GeneID 50149) [DRSC04975], what does the deposit list?
raw ATP luminescence, replicate 1: 47430; raw ATP luminescence, replicate 2: 91910; Outcome: inactive

For CG30158 (GeneID 50149) [DRSC05012], what does the deposit list?
raw ATP luminescence, replicate 1: 46380; raw ATP luminescence, replicate 2: 98457; Outcome: inactive

For CG11550 (GeneID 43731) [DRSC14326], how do the results read?
raw ATP luminescence, replicate 1: 44450; raw ATP luminescence, replicate 2: 47940; Outcome: inactive

For Cyp6a16Psi (retired record) (GeneID 3772661) [DRSC03307], what does the deposit list?
raw ATP luminescence, replicate 1: 29960; raw ATP luminescence, replicate 2: 25793; Outcome: inactive

For CG11964 (GeneID 41068) [DRSC14447], what does the deposit list?
raw ATP luminescence, replicate 1: 53753; raw ATP luminescence, replicate 2: 28780; Outcome: inactive

With Spt3 (GeneID 41461) [DRSC15465], what does the deposit list?
raw ATP luminescence, replicate 1: 42960; raw ATP luminescence, replicate 2: 45523; Outcome: inactive

What did the screen give for CG3225 (GeneID 33680) [DRSC00578]?
raw ATP luminescence, replicate 1: 1.15e5; raw ATP luminescence, replicate 2: 95873; Outcome: inactive

For Gale (GeneID 38076) [DRSC08234], how do the results read?
raw ATP luminescence, replicate 1: 39007; raw ATP luminescence, replicate 2: 61683; Outcome: inactive

Which result is listed for Mitf (GeneID 3885647) [DRSC17212]?
raw ATP luminescence, replicate 1: 52220; raw ATP luminescence, replicate 2: 56510; Outcome: inactive

With Mitf (GeneID 3885647) [DRSC21056], what does the deposit list?
raw ATP luminescence, replicate 1: 1.95e5; raw ATP luminescence, replicate 2: 1.90e5; Outcome: inactive

3 entries from above, set out differently.
predicted target	DRSC id	SD above plate mean	raw ATP luminescence, replicate 1	raw ATP luminescence, replicate 2	Outcome
CG11550 (GeneID 43731)	DRSC14326		44450	47940	inactive
Cyp6a16Psi (retired record) (GeneID 3772661)	DRSC03307		29960	25793	inactive
CG11964 (GeneID 41068)	DRSC14447		53753	28780	inactive
